Source: PMC7819943, “Rice protein-binding microarrays: a tool to detect cis-acting elements near promoter regions in rice”
The other results are listed elsewhere or left out.

Biological target: T1, OsSMF1 (Oryza sativa, UniProt Q6ZLB0 1-436)
T1 sequence: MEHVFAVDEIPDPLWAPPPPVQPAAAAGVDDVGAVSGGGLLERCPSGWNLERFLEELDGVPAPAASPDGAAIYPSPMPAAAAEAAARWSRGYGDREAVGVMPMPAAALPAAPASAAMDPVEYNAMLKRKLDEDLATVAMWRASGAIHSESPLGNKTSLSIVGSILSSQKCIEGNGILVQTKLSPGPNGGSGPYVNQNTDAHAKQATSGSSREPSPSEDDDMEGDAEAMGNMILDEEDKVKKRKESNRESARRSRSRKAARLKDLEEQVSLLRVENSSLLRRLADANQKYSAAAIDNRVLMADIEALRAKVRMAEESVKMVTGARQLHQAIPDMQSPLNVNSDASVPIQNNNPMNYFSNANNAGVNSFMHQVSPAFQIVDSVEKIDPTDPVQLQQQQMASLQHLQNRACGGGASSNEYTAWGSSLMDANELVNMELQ
Assay: protein-binding microarray (RPBM); PBS, 2% BSA, 51.3 ng/ul salmon testes DNA, 50 uM zinc acetate, 200 nM TF, 25 C, 1 h; high values mean tight binding
Details: protein: recombinant; tags: N-terminal polyhistidine and DsRed monomer fusion (pET32a); chain copies: 2; label: CyDye5-dUTP incorporated in the synthesized complementary strand; 3' TTTTT single-stranded linker to array surface; dsDNA, one strand shown
Method in brief: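 A custom Agilent array was converted to double-stranded form by primer extension with Cy5-dUTP and blocked with 2% BSA. Protein at 200 nM in PBS with 2% BSA, salmon testes DNA and 50 µM zinc acetate was applied for 1 h at 25 °C, followed by washing. The proteins were polyhistidine–DsRed N-terminal fusions of transcription factors, expressed in E. coli BL21-CodonPlus and Ni–NTA-purified. The binding signal is per-feature fluorescence intensity (arbitrary units) from an Axon 4000B scanner.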

| Sequence | binding signal |
| --- | --- |
| AATACTGCCTTCATTGTGGGGTGTAACTGGACGTGTCAGACGGAGTCACCTAGTGCAG | 4500 fluorescence intensity (a.u.) |
| ACCACAATGAAAGTTTCAGTTCATATCATATGGCATACTACGGAGTCACCTAGTGCAG | 3250 fluorescence intensity (a.u.) |
| CGCCCCACCACTCGTGACGCCGACGTACGCTTTGCTCTCTCGGAGTCACCTAGTGCAG | 4470 fluorescence intensity (a.u.) |
| GCATTGGGAGCCCCTGCCTGCCCACCTGTCCTCCCCAGAGCGGAGTCACCTAGTGCAG | 3270 fluorescence intensity (a.u.) |
| AGAGGAACCAATCGTACACGCTGGCGCATAGAAGCTTCCTCGGAGTCACCTAGTGCAG | 4070 fluorescence intensity (a.u.) |
| GGTGTAGTGACCTTGCACTGACGTGAATAATCGCAGAGCGCGGAGTCACCTAGTGCAG | 5670 fluorescence intensity (a.u.) |
| TGAGCTCGTAACGGACCTGGCGACGTCAGCGTCCCACTCCCGGAGTCACCTAGTGCAG | 10700 fluorescence intensity (a.u.) |
| TGGGCCTAATTTTCATCATCAACGTAGGCTAGTTATTAGGCGGAGTCACCTAGTGCAG | 3940 fluorescence intensity (a.u.) |
| CTTTGTCCTGTACTATTGCTCATGACTCCATGCCAAGTGGCGGAGTCACCTAGTGCAG | 4900 fluorescence intensity (a.u.) |
| TGTGTACGTCACATCCTAATTAACATCAACTTGATAAAATCGGAGTCACCTAGTGCAG | 7900 fluorescence intensity (a.u.) |
| CGCATCGTGCCCATCCTCTTCGTCCCGCACACGTTTGTGTCGGAGTCACCTAGTGCAG | 3370 fluorescence intensity (a.u.) |
| CTTGGCATTCTAGAGCACAGCGTGGCATGCGCTATCCCCGCGGAGTCACCTAGTGCAG | 6040 fluorescence intensity (a.u.) |
| TGAAAGTGCCATTGCTTTGTTGTGGGGCAATGCCTCGATGCGGAGTCACCTAGTGCAG | 20500 fluorescence intensity (a.u.) |
| TCAGTTTAATAATTAATTCAGCTGGTACATTTAGGCGAAACGGAGTCACCTAGTGCAG | 25100 fluorescence intensity (a.u.) |
| TGAGTAATTGATAGTGACACGGCTATCCAACCAATCCAGGCGGAGTCACCTAGTGCAG | 3170 fluorescence intensity (a.u.) |
| TGTTTTATGTTGCTGCTTCTTAGAAAGTATACGCGTATTGCGGAGTCACCTAGTGCAG | 5160 fluorescence intensity (a.u.) |
| AGTAACCTCAATGAAAGATGCATGGTATCAGATACCACAACGGAGTCACCTAGTGCAG | 3810 fluorescence intensity (a.u.) |
| TCCGCGGCCCCGCTGGCCCACACGCATGCGTCCAAACAGCCGGAGTCACCTAGTGCAG | 3940 fluorescence intensity (a.u.) |
| TTGTTGCGCAATTTCATATGTTAAGTGAGGTATTATTTTGCGGAGTCACCTAGTGCAG | 3220 fluorescence intensity (a.u.) |
| GTTTGTCGGCGACGAAGTAGACGTCATCTCCGAAGTCGCTCGGAGTCACCTAGTGCAG | 4960 fluorescence intensity (a.u.) |
| TATAAGGGTTACTGATGGTTGGGTCCCATAGGATGACTCACGGAGTCACCTAGTGCAG | 5300 fluorescence intensity (a.u.) |

| Sequence | binding signal |
| --- | --- |
| TTGATTCGTTTGCCAATGACACGCGGGCCCTTGAGCGCTACGGAGTCACCTAGTGCAG | 4820 fluorescence intensity (a.u.) |
| AAATGGCTCGGCCCAATCCCAGGCGAAAACCCGTGTCCTCCGGAGTCACCTAGTGCAG | 13100 fluorescence intensity (a.u.) |
| GTAGGCACACAGTGACACAGCGTGTCGTTGTACATTTGCACGGAGTCACCTAGTGCAG | 3140 fluorescence intensity (a.u.) |
| AATAAATAATTATTGCTAATGGGTGATGATGTGGCATGGTCGGAGTCACCTAGTGCAG | 6930 fluorescence intensity (a.u.) |
| CGCCGGCTCCTCGTCCTCGTCACCACCACCACGCCAACATCGGAGTCACCTAGTGCAG | 7070 fluorescence intensity (a.u.) |
| AAGCGAGCTTACGTATTGACGAATTTACGCTTTCTGGTCACGGAGTCACCTAGTGCAG | 5050 fluorescence intensity (a.u.) |
| ATGGGTAGGAGGGTTATTAATTGATGATGTGGTTTGGTTACGGAGTCACCTAGTGCAG | 7080 fluorescence intensity (a.u.) |
| CATGTAGACGGCATGTTTGACCTGTCAGCGTGTGTGTGTCCGGAGTCACCTAGTGCAG | 4500 fluorescence intensity (a.u.) |
| TTTGTATGCGTGGATGCAGCCTGACGTGACGGCGCCGGGGCGGAGTCACCTAGTGCAG | 5240 fluorescence intensity (a.u.) |
| AACCGAAATTGTACCACCATGATATGATTCTTAATTTTATCGGAGTCACCTAGTGCAG | 3360 fluorescence intensity (a.u.) |
| GGCTTCCCGCGCCACAAGCTTTGCCGCCACCTCCTCCTCGCGGAGTCACCTAGTGCAG | 3230 fluorescence intensity (a.u.) |
| GGCATGATCTGTTTCATATTGTTATGTCAAAGATGTCATTCGGAGTCACCTAGTGCAG | 30400 fluorescence intensity (a.u.) |
| CAGCCACTGGTAGTCACAATACGATGACGTGCCCACCGCTCGGAGTCACCTAGTGCAG | 5000 fluorescence intensity (a.u.) |
| TAGAGCCATACATGCAGACTATATTTGAGCTGACCTCAAACGGAGTCACCTAGTGCAG | 3320 fluorescence intensity (a.u.) |
| CGTCTAGTTTCCGAAGTAGGGCGTCGAATGTTAGTATTGTCGGAGTCACCTAGTGCAG | 3340 fluorescence intensity (a.u.) |
| AGCTAAAATAAACTTTACCAAATTTTGGCAATGCCAAAATCGGAGTCACCTAGTGCAG | 51800 fluorescence intensity (a.u.) |
| TCATTTGCTCTTTGAGTGATACAGTACTATGCTTCCCCTTCGGAGTCACCTAGTGCAG | 3690 fluorescence intensity (a.u.) |
| AAAGCCTAATGGGCAATCGATCGCCCCGAGCTATCACCCCCGGAGTCACCTAGTGCAG | 3210 fluorescence intensity (a.u.) |
| CTACACACACCCGTGCCTCGCACCACGTATAACACGGTCGCGGAGTCACCTAGTGCAG | 3470 fluorescence intensity (a.u.) |
| TATCTCCACAAGGAAAACACGATGGAGTGACGAAACACCTCGGAGTCACCTAGTGCAG | 3580 fluorescence intensity (a.u.) |
| CAATGGCCTCCACCGCACCTCCCGCTTCCACGACGCCATGCGGAGTCACCTAGTGCAG | 3510 fluorescence intensity (a.u.) |

2 entries from above, with tabs:
Sequence	binding signal
CATGTAGACGGCATGTTTGACCTGTCAGCGTGTGTGTGTCCGGAGTCACCTAGTGCAG	4500 fluorescence intensity (a.u.)
AACCGAAATTGTACCACCATGATATGATTCTTAATTTTATCGGAGTCACCTAGTGCAG	3360 fluorescence intensity (a.u.)
